# Laboratory results published in patent US20210093714A1, “Combination and method for inhibiting the cancer cells” (NATIONAL TAIWAN UNIVERSITY, priority 2013, published 2021).
# The chains behind the UniProt entries cited, without tags or fusion partners. Where a name states a change or a piece, a line headed by the entry shows the natural chain unless it says otherwise. A line that says so, or that is headed by a name, gives the form on record, which may keep a tag or linker.
# β-pix (Q14155, form named): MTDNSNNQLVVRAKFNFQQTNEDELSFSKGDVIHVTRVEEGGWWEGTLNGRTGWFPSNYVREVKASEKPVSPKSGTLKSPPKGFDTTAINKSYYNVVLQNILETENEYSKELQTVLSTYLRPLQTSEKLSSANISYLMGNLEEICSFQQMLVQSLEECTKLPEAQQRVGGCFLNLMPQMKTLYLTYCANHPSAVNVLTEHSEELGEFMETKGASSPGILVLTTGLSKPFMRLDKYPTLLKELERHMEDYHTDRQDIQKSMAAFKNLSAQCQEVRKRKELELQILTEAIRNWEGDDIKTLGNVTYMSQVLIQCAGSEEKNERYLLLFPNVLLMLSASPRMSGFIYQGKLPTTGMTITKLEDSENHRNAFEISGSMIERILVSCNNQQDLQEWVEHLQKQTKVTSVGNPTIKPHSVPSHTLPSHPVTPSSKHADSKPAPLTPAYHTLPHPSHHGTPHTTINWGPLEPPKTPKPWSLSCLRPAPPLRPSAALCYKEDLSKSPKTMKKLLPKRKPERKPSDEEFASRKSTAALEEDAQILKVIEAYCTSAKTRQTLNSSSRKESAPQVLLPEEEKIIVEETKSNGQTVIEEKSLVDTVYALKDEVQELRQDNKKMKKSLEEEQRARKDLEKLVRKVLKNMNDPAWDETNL
# No constants are given. Whether binding was seen depends on the method and setting. In cells and extracts the contact can be indirect. Some binding calls cover weakened binding; strength is not graded here.
# Target: c-casitas B-lineage lymphoma (c-Cbl) (UniProt P22681)
# Test: co-immunoprecipitation with anti-β-pix and anti-c-Cbl from CL1-5, A549 and CL1-0/siCCN2 lysates (FIG. 4F)
substance,measurement,value
β-pix (from UniProt Q14155 1-646),binding,binds
